# Library screen at single concentrations

Protein sequences, listed by entry. Tags and fused reporters are not part of them. Residues count along the entry.
UniProt P9WNZ1, whole entry: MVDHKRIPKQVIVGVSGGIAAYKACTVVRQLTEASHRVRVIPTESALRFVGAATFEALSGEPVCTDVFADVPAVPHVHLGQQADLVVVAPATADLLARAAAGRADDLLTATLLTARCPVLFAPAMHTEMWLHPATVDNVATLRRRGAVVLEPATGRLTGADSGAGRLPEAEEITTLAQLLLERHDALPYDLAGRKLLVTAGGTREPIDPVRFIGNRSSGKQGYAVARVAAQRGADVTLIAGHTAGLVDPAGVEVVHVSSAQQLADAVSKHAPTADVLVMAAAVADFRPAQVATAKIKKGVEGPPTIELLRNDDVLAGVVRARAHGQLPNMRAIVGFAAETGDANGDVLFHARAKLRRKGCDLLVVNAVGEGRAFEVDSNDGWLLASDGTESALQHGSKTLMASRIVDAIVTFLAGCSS
UniProt Q8IDJ8, 1-583: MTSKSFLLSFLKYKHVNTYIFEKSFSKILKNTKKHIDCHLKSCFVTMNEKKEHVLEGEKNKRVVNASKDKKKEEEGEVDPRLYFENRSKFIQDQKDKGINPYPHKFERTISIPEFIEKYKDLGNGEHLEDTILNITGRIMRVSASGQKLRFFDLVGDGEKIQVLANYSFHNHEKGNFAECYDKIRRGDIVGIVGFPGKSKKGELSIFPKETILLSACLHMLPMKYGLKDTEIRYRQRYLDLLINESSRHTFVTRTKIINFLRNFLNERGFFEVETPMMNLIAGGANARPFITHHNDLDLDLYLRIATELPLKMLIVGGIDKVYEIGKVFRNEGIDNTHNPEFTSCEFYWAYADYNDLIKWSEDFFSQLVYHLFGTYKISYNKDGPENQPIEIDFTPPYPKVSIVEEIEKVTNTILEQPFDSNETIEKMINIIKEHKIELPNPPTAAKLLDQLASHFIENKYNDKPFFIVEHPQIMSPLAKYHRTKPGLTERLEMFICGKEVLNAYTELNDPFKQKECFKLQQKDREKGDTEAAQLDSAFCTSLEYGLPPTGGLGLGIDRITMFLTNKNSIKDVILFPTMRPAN
UniProt P9WFT3, whole entry: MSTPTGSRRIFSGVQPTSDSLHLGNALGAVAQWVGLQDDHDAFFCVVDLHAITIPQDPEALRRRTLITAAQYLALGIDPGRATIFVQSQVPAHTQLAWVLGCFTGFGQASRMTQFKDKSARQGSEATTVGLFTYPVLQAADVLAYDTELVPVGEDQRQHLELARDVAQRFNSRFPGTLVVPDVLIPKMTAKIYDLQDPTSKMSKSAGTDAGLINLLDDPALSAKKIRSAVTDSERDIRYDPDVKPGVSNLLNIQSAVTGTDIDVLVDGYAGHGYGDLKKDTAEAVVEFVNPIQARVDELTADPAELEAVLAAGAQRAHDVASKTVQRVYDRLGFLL
UniProt I6X8D2, whole entry: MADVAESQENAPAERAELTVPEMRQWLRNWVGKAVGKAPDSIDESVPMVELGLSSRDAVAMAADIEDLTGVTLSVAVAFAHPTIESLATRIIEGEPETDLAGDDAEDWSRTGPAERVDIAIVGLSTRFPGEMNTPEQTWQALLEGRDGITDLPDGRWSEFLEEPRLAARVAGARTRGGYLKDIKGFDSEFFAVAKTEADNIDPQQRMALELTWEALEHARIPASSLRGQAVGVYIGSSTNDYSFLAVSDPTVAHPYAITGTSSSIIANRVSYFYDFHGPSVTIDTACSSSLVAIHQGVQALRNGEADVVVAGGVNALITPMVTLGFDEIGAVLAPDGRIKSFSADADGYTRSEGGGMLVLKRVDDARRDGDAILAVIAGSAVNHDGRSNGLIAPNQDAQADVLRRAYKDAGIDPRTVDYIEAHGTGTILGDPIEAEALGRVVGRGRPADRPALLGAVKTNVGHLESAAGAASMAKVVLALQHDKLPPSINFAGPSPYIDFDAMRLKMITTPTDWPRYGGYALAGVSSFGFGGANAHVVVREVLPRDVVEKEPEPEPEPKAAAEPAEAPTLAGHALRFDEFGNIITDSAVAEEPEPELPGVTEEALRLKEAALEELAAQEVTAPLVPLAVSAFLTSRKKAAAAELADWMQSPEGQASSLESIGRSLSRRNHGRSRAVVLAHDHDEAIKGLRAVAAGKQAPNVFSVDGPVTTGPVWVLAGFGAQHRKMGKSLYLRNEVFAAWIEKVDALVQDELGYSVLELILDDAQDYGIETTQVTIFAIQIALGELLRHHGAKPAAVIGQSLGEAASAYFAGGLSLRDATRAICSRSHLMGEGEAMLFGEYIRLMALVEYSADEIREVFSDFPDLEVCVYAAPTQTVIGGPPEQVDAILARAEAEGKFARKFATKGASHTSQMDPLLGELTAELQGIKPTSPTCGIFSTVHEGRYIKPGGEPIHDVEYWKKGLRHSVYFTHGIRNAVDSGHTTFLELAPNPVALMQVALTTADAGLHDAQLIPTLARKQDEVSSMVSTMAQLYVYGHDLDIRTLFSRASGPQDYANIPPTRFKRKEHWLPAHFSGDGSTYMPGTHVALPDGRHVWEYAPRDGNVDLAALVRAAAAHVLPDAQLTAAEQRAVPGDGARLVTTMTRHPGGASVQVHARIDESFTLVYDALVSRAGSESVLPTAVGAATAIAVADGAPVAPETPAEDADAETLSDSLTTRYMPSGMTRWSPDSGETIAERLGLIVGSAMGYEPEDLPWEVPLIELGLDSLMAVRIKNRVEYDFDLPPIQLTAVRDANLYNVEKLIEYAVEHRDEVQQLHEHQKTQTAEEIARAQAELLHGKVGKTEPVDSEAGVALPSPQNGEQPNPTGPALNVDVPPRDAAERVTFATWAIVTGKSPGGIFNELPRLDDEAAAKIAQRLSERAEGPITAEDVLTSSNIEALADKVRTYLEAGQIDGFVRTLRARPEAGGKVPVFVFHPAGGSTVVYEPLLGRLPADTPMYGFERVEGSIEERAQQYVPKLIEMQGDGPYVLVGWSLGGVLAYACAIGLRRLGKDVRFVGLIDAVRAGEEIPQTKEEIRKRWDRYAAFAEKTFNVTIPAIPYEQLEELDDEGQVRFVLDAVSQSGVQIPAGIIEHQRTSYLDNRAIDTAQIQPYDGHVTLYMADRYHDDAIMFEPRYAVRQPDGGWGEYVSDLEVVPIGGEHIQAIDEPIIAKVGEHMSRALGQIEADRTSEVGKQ

From ChEMBL document CHEMBL3988442, “University of Dundee, Small-Polar-MMV Screening Library” (2021).

Each number is a percent effect as filed.
The controls that fix the scale are not given in the record; negative values are as filed.
Compounds were drawn at random from those tested, without regard to their results.

CoaBC: 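Enzyme assay of CoaBC with a phosphate dye (Biomol Green) read at 650 nm. Target: Coenzyme A biosynthesis protein CoaBC, Mycobacterium tuberculosis (UniProt P9WNZ1). Tested at 30 µM. Direction is inferred from only a few compounds that gave an IC50; most scored high, so higher reads as stronger inhibition. Most strong results did not repeat in a second test. About 67,000 compounds were tested under these conditions; 0.06% (about 40) showed 50% or more at least once.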
PfKRS1: 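Enzyme assay of the cytosolic lysyl-tRNA synthetase in 384-well plates, read by luminescence. Target: Lysine-tRNA ligase, Plasmodium falciparum 3D7 (UniProt Q8IDJ8). Concentration: 30 µM. Higher reads as stronger inhibition, judged from the few compounds that gave an IC50. Size under these conditions: about 69,000 compounds, about 49 of them at 50% or above in at least one test.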
Toxoplasma: 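Assay of Toxoplasma gondii numbers, read through their beta-galactosidase reporter with a colour substrate. Tested at 10 µM. The record gives no direction; the compounds picked for IC50 retests had high values, so higher reads as fewer parasites. About 67,000 compounds were tested under these conditions; 0.38% (about 260) showed 50% or more at least once.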
MtTrpRS: 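Tryptophan-tRNA ligase, Mycobacterium tuberculosis (UniProt P9WFT3). Enzyme assay of tryptophanyl-tRNA synthetase; the read-out is not stated. Compounds at 10 µM. Higher most likely means stronger inhibition; the record gives no direction and few retests gave an IC50. About 65,000 compounds were tested under these conditions; 0.098% (about 64) showed 50% or more at least once.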
Pks13 thioesterase: 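Polyketide synthase Pks13, Mycobacterium tuberculosis (UniProt I6X8D2). Enzyme assay of the thioesterase domain of polyketide synthase 13; the read-out is not stated. Tested at 30 µM. Higher reads as stronger inhibition (inferred from which compounds were picked for retests). Size under these conditions: about 67,000 compounds, about 300 of them at 50% or above in at least one test.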

{"structure": "O=C(c1ccc2c(c1)CCO2)N1CCN(c2ncccn2)CC1", "CoaBC": 0.6274, "PfKRS1": 2.435, "Toxoplasma": -2.54, "MtTrpRS": -5.442, "Pks13 thioesterase": 22.47}
{"structure": "COc1ccccc1OCc1cc(C(=O)NC[C@@H]2CCCN2)n[nH]1", "CoaBC": -21.1, "PfKRS1": 3.918, "Toxoplasma": 8.947, "MtTrpRS": -2.862, "Pks13 thioesterase": -12.97}
{"structure": "COc1ccccc1[C@@H]1CN(Cc2cc(C(C)(C)C)[nH]n2)C[C@H]1C(=O)O", "CoaBC": 4.219, "PfKRS1": 6.062, "Toxoplasma": -1.977, "MtTrpRS": -3.602, "Pks13 thioesterase": -22.51}
{"structure": "COc1ccc(CN(Cc2c[nH]cn2)CC2CCCO2)c(OC)c1", "stereo": "stereo unspecified", "CoaBC": -2.451, "PfKRS1": 2.73, "Pks13 thioesterase": 4.649}
{"structure": "COCCOc1cccc(CNCC2CN(C)CCO2)c1", "stereo": "stereo unspecified", "CoaBC": 13.38, "PfKRS1": -2.118, "Toxoplasma": -4.606, "MtTrpRS": 3.488, "Pks13 thioesterase": 21.96}
{"structure": "Cc1cc2nc(C(C)C)cc(NCCc3ccncc3)n2n1", "CoaBC": 3.855, "PfKRS1": 0.1373, "Toxoplasma": -13.7, "MtTrpRS": 3.56, "Pks13 thioesterase": -15.48}
{"structure": "Cn1c(NCC(O)c2ccccc2F)c(C#N)c(=O)n(C)c1=O", "stereo": "stereo unspecified", "CoaBC": 4.724, "PfKRS1": 0.3026, "Toxoplasma": 4.127, "MtTrpRS": -5.845, "Pks13 thioesterase": 0.9508}
{"structure": "COc1ccnc(N(C)Cc2ccco2)n1", "CoaBC": -3.846, "PfKRS1": 0.9716, "Toxoplasma": -6.55, "MtTrpRS": 7.209, "Pks13 thioesterase": 17.17}
{"structure": "COc1cc2c(cc1OC)S(=O)(=O)N(Cc1cccc(C)c1)C2=O", "PfKRS1": 3.106, "Toxoplasma": 2.511, "MtTrpRS": 5.366, "Pks13 thioesterase": -34.8}
{"structure": "OCCN1CCC(F)(F)C2(CCN(c3cccnc3)C2)C1", "stereo": "stereo unspecified", "CoaBC": -0.2469, "PfKRS1": 4.675, "Toxoplasma": -40.36, "Pks13 thioesterase": -10.16}
{"structure": "O=C(Nc1cnn(Cc2ccccc2)c1)N1CCN(CCO)CC1", "CoaBC": -0.4474, "PfKRS1": 3.315, "Toxoplasma": -0.38, "MtTrpRS": 3.997, "Pks13 thioesterase": -15.58}
{"structure": "NC[C@H]1[C@H]2CN(Cc3ccccc3)C[C@@H]12", "CoaBC": 3.628, "PfKRS1": 2.529, "MtTrpRS": 2.366, "Pks13 thioesterase": 24.02}
{"structure": "Cc1nc(C)c(C)c(NCCSc2ccccn2)n1", "CoaBC": 3.782, "PfKRS1": -1.145, "Toxoplasma": -10.56, "MtTrpRS": -4.803, "Pks13 thioesterase": -32.89}
{"structure": "[H][C@@]12CNCC[C@]1(O)CCN(CCOc1ccccc1CC)C2", "Toxoplasma": 5.465}

The first 2 entries again:

structure	CoaBC	PfKRS1	Toxoplasma	MtTrpRS	Pks13 thioesterase
O=C(c1ccc2c(c1)CCO2)N1CCN(c2ncccn2)CC1	0.6274%	2.435%	-2.54%	-5.442%	22.47%
COc1ccccc1OCc1cc(C(=O)NC[C@@H]2CCCN2)n[nH]1	-21.1%	3.918%	8.947%	-2.862%	-12.97%